# From the supplement of paper PMC8728848
# Some of the results follow.
# Legend:
# Test in all cases: glycan array binding signal (z-score within array); higher = stronger binding
# Conditions in all cases: glycan notation: IUPAC condensed, linker removed
# [1] = biological target: Neu5Ac(a2-3)Gal(b1-3)[Fuc(a1-4)]GlcNAc
# Procedure, shortened: (§1)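 Glycan array binding is given as a within-array Z-score, which can be read as non-binding when negative. The arrays, 3228 of them, came from the Consortium for Functional Glycomics database and were retained only where the protein sequence was available. Z-scores were averaged across arrays of the same protein sequence at different concentrations or buffers and across linkers.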
# [2] = biological target: Neu5Ac(a2-3)Gal(b1-3)[Fuc(a1-4)]GlcNAc(b1-3)Gal(b1-3)[Fuc(a1-4)]GlcNAc
# Procedure, shortened: as §1
# [3] = biological target: Neu5Ac(a2-3)Gal(b1-3)[Fuc(a1-4)]GlcNAc(b1-3)Gal(b1-4)[Fuc(a1-3)]GlcNAc
# Procedure, shortened: as §1
# [4] = biological target: Neu5Ac(a2-3)Gal(b1-3)[GlcNAc(b1-6)]GalNAc
# Procedure, shortened: as §1
# [5] = biological target: Neu5Ac(a2-3)Gal(b1-3)[Neu5Ac(a2-6)]GalNAc
# Procedure, shortened: as §1
# [6] = biological target: Neu5Ac(a2-3)Gal(b1-3)[Neu5Ac(a2-6)]GlcNAc(b1-3)[Fuc(a1-3)[Gal(b1-4)]GlcNAc(b1-6)]Gal(b1-4)Glc
# Procedure, shortened: as §1
# [7] = biological target: Neu5Ac(a2-3)Gal(b1-3)]Neu5Ac(a2-3)Gal(b1-4)]GlcNAc
# Procedure, shortened: as §1
# [8] = biological target: Neu5Ac(a2-3)Gal(b1-4)Glc
# Procedure, shortened: as §1
# [9] = biological target: Neu5Ac(a2-3)Gal(b1-4)GlcNAc
# Procedure, shortened: as §1
# [10] = biological target: Neu5Ac(a2-3)Gal(b1-4)GlcNAc(b1-2)Man
# Procedure, shortened: as §1
# [11] = biological target: Neu5Ac(a2-3)Gal(b1-4)GlcNAc(b1-2)Man(a1-3)[GlcNAc(b1-4)][Neu5Ac(a2-3)Gal(b1-4)GlcNAc(b1-2)Man(a1-6)]Man(b1-4)GlcNAc(b1-4)GlcNAc
# Procedure, shortened: as §1
# [12] = biological target: Neu5Ac(a2-3)Gal(b1-4)GlcNAc(b1-2)Man(a1-3)[Neu5Ac(a2-3)Gal(b1-4)GlcNAc(b1-2)Man(a1-6)]Man(b1-4)GlcNAc(b1-4)GlcNAc
# Procedure, shortened: as §1
# [13] = biological target: Neu5Ac(a2-3)Gal(b1-4)GlcNAc(b1-2)Man(a1-3)[Neu5Ac(a2-3)Gal(b1-4)GlcNAc(b1-2)Man(a1-6)]Man(b1-4)GlcNAc(b1-4)[Fuc(a1-6)]GlcNAc
# Procedure, shortened: as §1
# [14] = biological target: Neu5Ac(a2-3)Gal(b1-4)GlcNAc(b1-2)Man(a1-3)[Neu5Ac(a2-6)Gal(b1-4)GlcNAc(b1-2)Man(a1-6)]Man(b1-4)GlcNAc(b1-4)GlcNAc
# Procedure, shortened: as §1
# [15] = biological target: Neu5Ac(a2-3)Gal(b1-4)GlcNAc(b1-2)[Neu5Ac(a2-3)Gal(b1-4)GlcNAc(b1-4)]Man(a1-3)[GlcNAc(b1-4)][Neu5Ac(a2-3)Gal(b1-4)GlcNAc(b1-2)[Neu5Ac(a2-3)Gal(b1-4)GlcNAc(b1-6)]Man(a1-6)]Man(b1-4)GlcNAc(b1-4)GlcNAc
# Procedure, shortened: as §1
# [16] = biological target: Neu5Ac(a2-3)Gal(b1-4)GlcNAc(b1-2)[Neu5Ac(a2-3)Gal(b1-4)GlcNAc(b1-4)]Man(a1-3)[GlcNAc(b1-4)][Neu5Ac(a2-3)Gal(b1-4)GlcNAc(b1-4)Man(a1-6)]Man(b1-4)GlcNAc(b1-4)GlcNAc
# Procedure, shortened: as §1
# [17] = biological target: Neu5Ac(a2-3)Gal(b1-4)GlcNAc(b1-2)[Neu5Ac(a2-3)Gal(b1-4)GlcNAc(b1-6)]Man(a1-6)[Neu5Ac(a2-3)Gal(b1-4)GlcNAc(b1-2)Man(a1-3)]Man(b1-4)GlcNAc(b1-4)GlcNAc
# Procedure, shortened: as §1
# [18] = biological target: Neu5Ac(a2-3)Gal(b1-4)GlcNAc(b1-2)[Neu5Ac(a2-3)Gal(b1-4)GlcNAc(b1-6)]Man(a1-6)[Neu5Ac(a2-3)Gal(b1-4)GlcNAc(b1-2)Man(a1-3)][GlcNAc(b1-4)]Man(b1-4)GlcNAc(b1-4)GlcNAc
# Procedure, shortened: as §1
# [19] = biological target: Neu5Ac(a2-3)Gal(b1-4)GlcNAc(b1-3)Gal
# Procedure, shortened: as §1
# [20] = biological target: Neu5Ac(a2-3)Gal(b1-4)GlcNAc(b1-3)Gal(b1-3)GlcNAc
# Procedure, shortened: as §1
# [21] = biological target: Neu5Ac(a2-3)Gal(b1-4)GlcNAc(b1-3)Gal(b1-4)GlcNAc
# Procedure, shortened: as §1
# [22] = biological target: Neu5Ac(a2-3)Gal(b1-4)GlcNAc(b1-3)Gal(b1-4)GlcNAc(b1-2)Man(a1-3)[Neu5Ac(a2-3)Gal(b1-4)GlcNAc(b1-3)Gal(b1-4)GlcNAc(b1-2)Man(a1-6)]Man(b1-4)GlcNAc(b1-4)GlcNAc
# Procedure, shortened: as §1
# [23] = biological target: Neu5Ac(a2-3)Gal(b1-4)GlcNAc(b1-3)Gal(b1-4)GlcNAc(b1-3)Gal(b1-4)GlcNAc
# Procedure, shortened: as §1
# [24] = biological target: Neu5Ac(a2-3)Gal(b1-4)GlcNAc(b1-3)Gal(b1-4)GlcNAc(b1-3)Gal(b1-4)GlcNAc(b1-2)Man(a1-3)[Neu5Ac(a2-3)Gal(b1-4)GlcNAc(b1-3)Gal(b1-4)GlcNAc(b1-3)Gal(b1-4)GlcNAc(b1-2)Man(a1-6)]GalNAc
# Procedure, shortened: as §1
# [25] = biological target: Neu5Ac(a2-3)Gal(b1-4)GlcNAc(b1-3)Gal(b1-4)GlcNAc(b1-3)GalNAc
# Procedure, shortened: as §1
# [26] = biological target: Neu5Ac(a2-3)Gal(b1-4)GlcNAc(b1-3)Gal(b1-4)GlcNAc(b1-3)[Neu5Ac(a2-3)Gal(b1-4)GlcNAc(b1-3)Gal(b1-4)GlcNAc(b1-6)]GalNAc
# Procedure, shortened: as §1
# [27] = biological target: Neu5Ac(a2-3)Gal(b1-4)GlcNAc(b1-3)Gal(b1-4)GlcNAc(b1-6)[Gal(b1-3)]GalNAc
# Procedure, shortened: as §1
# [28] = biological target: Neu5Ac(a2-3)Gal(b1-4)GlcNAc(b1-3)Gal(b1-4)[Fuc(a1-3)]GlcNAc
# Procedure, shortened: as §1
# [29] = biological target: Neu5Ac(a2-3)Gal(b1-4)GlcNAc(b1-3)GalNAc
# Procedure, shortened: as §1
# [30] = biological target: Neu5Ac(a2-3)Gal(b1-4)GlcNAc(b1-3)[Neu5Ac(a2-3)Gal(b1-4)GlcNAc(b1-6)]GalNAc
# Procedure, shortened: as §1
binder,measurement,setting,value
PX14343G-pdi-535-24-535 (Parabacteroides distasonis) (protein) LDTVPKDQLAPSTTWQTEADAKGFIVGCYKDLLDGNTLLYLDCGSDIGYNNFPWEGFRPWGDGSLSSSNPGQILYDYKSIRKANTFLENVDKVTFSSDAVKANYVAQAKAIRAYKYFLMNWWYGGVPIISSYSSADEAKVERNTEQEVRDYIAKDLDEALAGIAEAPEARGYIAKGAVLAIKMREALYYGDWQKAKDAAKAIIDLKQYELDPDYTNLFKVSGVDSKEIILADQNIETLDGLGTIGQMYNNVDQGWSSIVPTQNLVDMYEMSDGLTKEESKTYDAKHPFANRDPRMAMTILYPGRDWRGDVLNTLDEKLQDGTVNKNFPTYTDNASKSALTWAKYLDPMDQYGDVWSSGACPIVFRYAEVLLTYAEAANELSGPSDEIYGYLNQIRQRVGMGEVDKAKYGTKDKLRELIRRERTVELAGEGLRRADIVRWQEDGKMLAEKVMNGDLLRVTGTINYGESEPTKRAEITGTAVIETRQFSSRNRYLPIPQTSMDKNPNLKQNPGY,glycan array binding signal (z-score),[1],-0.235
same,glycan array binding signal (z-score),[2],-0.375
same,glycan array binding signal (z-score),[3],-0.605
same,glycan array binding signal (z-score),[4],-0.441
same,glycan array binding signal (z-score),[5],-0.287
same,glycan array binding signal (z-score),[6],-0.263
same,glycan array binding signal (z-score),[7],-0.118
same,glycan array binding signal (z-score),[8],-0.095
same,glycan array binding signal (z-score),[9],-0.52
same,glycan array binding signal (z-score),[10],0.906
same,glycan array binding signal (z-score),[11],-0.311
same,glycan array binding signal (z-score),[12],0.078
same,glycan array binding signal (z-score),[13],0.505
same,glycan array binding signal (z-score),[14],-0.159
same,glycan array binding signal (z-score),[15],-0.109
same,glycan array binding signal (z-score),[16],-0.359
same,glycan array binding signal (z-score),[17],-0.952
same,glycan array binding signal (z-score),[18],-0.038
same,glycan array binding signal (z-score),[19],-0.794
same,glycan array binding signal (z-score),[20],-0.163
same,glycan array binding signal (z-score),[21],0.102
same,glycan array binding signal (z-score),[22],0.236
same,glycan array binding signal (z-score),[23],-0.9
same,glycan array binding signal (z-score),[24],2
same,glycan array binding signal (z-score),[25],-0.099
same,glycan array binding signal (z-score),[26],0.711
same,glycan array binding signal (z-score),[27],1.55
same,glycan array binding signal (z-score),[28],-0.487
same,glycan array binding signal (z-score),[29],-0.39
same,glycan array binding signal (z-score),[30],0.038

# In a second layout: entries from further up
binder | measurement | setting | value
PX14343G-pdi-535-24-535 (Parabacteroides distasonis) (protein) LDTVPKDQLAPSTTWQTEADAKGFIVGCYKDLLDGNTLLYLDCGSDIGYNNFPWEGFRPWGDGSLSSSNPGQILYDYKSIRKANTFLENVDKVTFSSDAVKANYVAQAKAIRAYKYFLMNWWYGGVPIISSYSSADEAKVERNTEQEVRDYIAKDLDEALAGIAEAPEARGYIAKGAVLAIKMREALYYGDWQKAKDAAKAIIDLKQYELDPDYTNLFKVSGVDSKEIILADQNIETLDGLGTIGQMYNNVDQGWSSIVPTQNLVDMYEMSDGLTKEESKTYDAKHPFANRDPRMAMTILYPGRDWRGDVLNTLDEKLQDGTVNKNFPTYTDNASKSALTWAKYLDPMDQYGDVWSSGACPIVFRYAEVLLTYAEAANELSGPSDEIYGYLNQIRQRVGMGEVDKAKYGTKDKLRELIRRERTVELAGEGLRRADIVRWQEDGKMLAEKVMNGDLLRVTGTINYGESEPTKRAEITGTAVIETRQFSSRNRYLPIPQTSMDKNPNLKQNPGY | glycan array binding signal (z-score) | [12] | 0.078
same | glycan array binding signal (z-score) | [13] | 0.505
